# Taken from: PubChem BioAssay AID1259308 (NCATS, 2017)
# Screen: 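Genes whose loss raises luciferase production in HEK293 cells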 (primary screen)
# Cell system: human HEK293 embryonic kidney cells stably expressing firefly luciferase (HEK-CMV-Luc2-Hygro)
# Reagent: single siRNA against human genes, 0.8 pmol siRNA per well
# Duration: 72 h
# Measured: 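Luciferase light (ONE-Glo) measured on one replicate plate set and viability (CellTiter-Glo) on the other, scaled to a negative control siRNA, with robust z-scores and luciferase per cell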
# Reading the numbers: total luciferase, z-score and total luciferase, % of control: higher = more reporter protein produced; luciferase per cell, z-score: higher = more reporter output per viable cell; viable cells, % of control: higher = more viable cells
# Hit rule: 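An siRNA counts as active if its total luciferase robust z-score exceeds 3; genes with two or more such siRNAs out of three were retested with fresh siRNAs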
# Calls: active = raised luciferase; inactive = no rise
# The whole screen tested about 59,000 reagents; this is a random part of them. About 1,510 of them (2.6%) count as active. 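Calls use total luciferase alone and ignore viability, so some active siRNAs may act by altering cell number.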 Entries without a mark were called inactive. Reagents against one gene are numbered here.
"total luciferase, z-score","total luciferase, % of control","luciferase per cell, z-score","viable cells, % of control",gene,siRNA no.
0.699,95.8,1.32,75.6,IFNL1,1
-1.49,52.2,-1.49,86.3,IFNL1,2
0.388,89.6,-0.165,105,IFNL1,3
0.933,100,0.217,106,NRG3,1
-1.39,54.2,-1.85,98.6,NRG3,2
2.68,135,2.09,87.1,NRG3,3
1.9,120,1.63,87.2,DCTN3,1
-0.357,74.8,-0.593,97.7,DCTN3,2
0.757,96.9,1.12,80.6,DCTN3,3
-1.7,48.1,-1.15,72.8,SERPINE1,1
-0.377,74.4,1.23,60.1,SERPINE1,2
-1.91,43.9,-1.63,75.3,SERPINE1,3
0.407,90,0.692,83.8,HOXD1,1
-0.0883,80.1,0.439,79.8,HOXD1,2
0.164,85.1,0.0111,94.9,HOXD1,3
-3.2,18.3,-3,45,ZSWIM8,1
0.875,99.3,1.08,83.4,ZSWIM8,2
-0.325,75.4,-0.0527,85.5,ZSWIM8,3
-0.184,78.2,-0.517,100,RAB9B,1
0.273,87.3,0.0361,96.7,RAB9B,2
1.3,108,1.14,89.1,RAB9B,3
-2.53,31.5,-1.04,46.3,RPL32,1
-2.38,34.6,0.161,37.1,RPL32,2
-0.453,72.9,-0.738,98.9,RPL32,3
2.47,131,2.69,72,TMEM47,1
-1.68,48.4,-2.13,94.8,TMEM47,2
-0.771,66.5,1.07,56.1,TMEM47,3
0.811,98,1.44,75,OR52A5,1
-0.072,80.5,-0.578,105,OR52A5,2
0.639,94.6,1.88,64.5,OR52A5,3
-0.278,76.4,-0.249,91.1,ZNF124,1
2.35,129,1.52,96.3,ZNF124,2
1.76,117,0.725,108,ZNF124,3
3.32 (active),148,1.87,101,GPR27,1
0.105,84,0.0261,93.2,GPR27,2
0.684,95.5,0.289,98.9,GPR27,3
-0.376,74.4,-0.0944,85.2,CD46,1
-0.0431,81,-0.581,106,CD46,2
0.435,90.5,0.59,86.6,CD46,3

6 entries already listed, arranged by “luciferase per cell, z-score”, low to high.
"total luciferase, z-score","total luciferase, % of control","luciferase per cell, z-score","viable cells, % of control",gene,siRNA no.
-0.0431,81,-0.581,106,CD46,2
-0.376,74.4,-0.0944,85.2,CD46,1
0.105,84,0.0261,93.2,GPR27,2
0.684,95.5,0.289,98.9,GPR27,3
1.76,117,0.725,108,ZNF124,3
3.32 (active),148,1.87,101,GPR27,1
